PubChem BioAssay AID1259254 | NCATS | 2017
The deposit covers about 59,000 reagents; shown is a part drawn at random. Of all reagents, about 1,550 (2.6%) are marked active. 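G2 share is only a proxy for re-replication; each gene was hit by three separate siRNAs, and active genes were retested.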 The numbers tell different reagents against one gene apart. Further read-outs or replicates are left out here. No sequences are given here. Not given: the amount of reagent.

Screen: 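Gene knock-downs that lead to re-replication, shown by excess G2 DNA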 (primary screen)
Cells: human HCT116 colorectal cancer cells
Knock-down reagent: single siRNA against human genes
Time to read-out: 3 days
Measurement: 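Nuclei stained with Hoechst and imaged; cell-cycle phase assigned by DNA content; G2 share scaled per plate, non-targeting siRNA 0%, GMNN siRNA 100%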
Direction: G2 robust z-score: higher = more G2 cells, more excess DNA replication
Rule for the call: 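An siRNA counts as active if its G2 robust z-score lies at least 5 MADs above the screen median; here such calls match roughly 38% of GMNN control or more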

G2 robust z-score, by target gene and reagent
EQTN (equatorin): #1 0.274 inactive; #2 -0.508 inactive; #3 3.69 inactive
PTPRN (protein tyrosine phosphatase receptor type N): #1 0.409 inactive; #2 -0.442 inactive; #3 0.106 inactive
SYTL5 (synaptotagmin like 5): #1 0.71 inactive; #2 0.808 inactive; #3 2.88 inactive
COLEC11 (collectin subfamily member 11): #1 -0.00797 inactive; #2 -0.357 inactive; #3 -1.14 inactive
ADAM7 (ADAM metallopeptidase domain 7): #1 -0.286 inactive; #2 -1.51 inactive; #3 -0.095 inactive
GARIN6 (golgi associated RAB2 interactor family member 6): #1 0.47 inactive; #2 1.83 inactive; #3 -0.808 inactive
RAD54L2 (RAD54 like 2): #1 -0.848 inactive; #2 4.78 inactive; #3 -0.736 inactive
MED30 (mediator complex subunit 30): #1 3.03 inactive; #2 0.246 inactive; #3 -0.0844 inactive
HM13 (histocompatibility minor 13): #1 0.336 inactive; #2 -0.692 inactive; #3 -0.527 inactive
PTEN (phosphatase and tensin homolog): #1 -0.685 inactive; #2 0.0798 inactive; #3 -0.185 inactive

As entered above:
Under “outcome”, PTPRN (protein tyrosine phosphatase receptor type N) #2 shows inactive
PTEN (phosphatase and tensin homolog) #2, G2 robust z-score → 0.0798
